Test results: publication PMC10712050
No constants are given. Whether binding was seen depends on the method and setting. In cells and extracts the contact can be indirect. Binding calls can cover weak binding; strength is not graded here.

By UniProt entry, the sequences of proteins in these tests, tags left out. Where a name states a change or a piece, a line headed by the entry shows the natural chain unless it says otherwise.
UniProt P03953: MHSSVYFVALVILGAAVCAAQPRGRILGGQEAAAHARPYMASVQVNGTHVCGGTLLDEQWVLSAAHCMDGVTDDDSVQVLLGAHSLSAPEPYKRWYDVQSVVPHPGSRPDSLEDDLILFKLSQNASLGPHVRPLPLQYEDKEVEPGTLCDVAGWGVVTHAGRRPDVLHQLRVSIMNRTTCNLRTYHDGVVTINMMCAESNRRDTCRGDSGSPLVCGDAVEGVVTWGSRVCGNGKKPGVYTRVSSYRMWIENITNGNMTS

Key:
[1] = target: Adipsin expressed from adenovirus (Ad-Adipsin) in cardiomyocytes (UniProt P03953); assay: co-IP; cardiomyocytes infected with Ad-Adipsin, with or without PA challenge; protein A/G magnetic beads conjugated with anti-Adipsin and anti-Irak2 antibodies; immunoblot
[2] = target: GST-Adipsin fusion protein (UniProt P03953); assay: pull-down; GST-Adipsin immobilised on glutathione agarose (Pierce GST Protein Interaction Pull Down kit), prey from primary cardiomyocyte lysate, eluted complexes immunoblotted; only the target purified

B1: interleukin-1 receptor-associated kinase-like 2 (Irak2) (protein, UniProt Q8CFA1 1-622)
chain: MACYIYQLPSWVLDDLCRNIDTLSEWDWMQFASYVITDLTQLRKIKSMERVQGVSITRELLWWWSMRQATVQQLVDLLCHLELYRAAQIVLSWKPVPESTSPLPAFPEAVKPGAVATSRRNLKDEQEKVRPVKPRSLLDTGPIMAGAQRQRPCEMDAPCSLKTDAPDSPQSKYCSTSTSAPKQERLLGLPGDRLFWSEADVVQATEDFDQSHRISEGTFADIYQGQRNGVAFAFKKLREVAGSSPGSMDRFLQAEMQLCLRCCHANVLPLLGFCTGRQFHSLIYPYMANGSLHDRLWAQGNSDMLPWPQRASICSGLLLAVEHLHSLDIIHSNVKSANVLLDQHLNPKLAHPVAHPHPDNKKTKYTVMRTHLFQASAAYLPEHFIRVGQLTKQVDIFSCGIVLAEVLTGIPAMDKDRSPVYLKDLLLSEIPNSTSSVCSRKTSMGKAVVKEICQRHVEKRAGLLPEACEEAWATAVSVCLRRRNASVEEARVSLAGVEEQLRGQLSLPWSRVSEATGSSSNTPEETDDVDNSSLSVPSLVMMASCPGAASSPLFTGHGAAQPSTSGRQEADSSSEACTGPQTPQNATETSWKIEINEAKRRLMENIVLYKEERLDSSELFGP
[1]
  binding: binds
[2]
  binding: binds
